According to patent US8741944B2, “Anti-infective agents against intracellular pathogens” (priority 2007, dated 2014):
Like-named read-outs stand apart in the source and are kept apart here.

Legend:
[1] = test system: OVCAR-5 (Ovarian Cancer); experiment: NCI DTP tumor cell line screen (SRB), OVCAR-5
[2] = test system: NCI-H522 (Non-Small Cell Lung Cancer)
[3] = test system: MOLT-4 (Leukemia); experiment: NCI DTP tumor cell line screen (SRB), MOLT-4
[4] = test system: MCF7 (Breast Cancer); experiment: NCI DTP tumor cell line screen (SRB), MCF7
[5] = test system: A498 (Renal Cancer); experiment: NCI DTP tumor cell line screen (SRB), A498
[6] = test system: TK-10 (Renal Cancer); experiment: NCI DTP tumor cell line screen (SRB), TK-10
[7] = test system: UO-31 (Renal Cancer); experiment: NCI DTP tumor cell line screen (SRB), UO-31
[8] = test system: LOX IMVI (Melanoma); experiment: NCI DTP tumor cell line screen (SRB), LOX IMVI
[9] = test system: UACC-62 (Melanoma); experiment: NCI DTP tumor cell line screen (SRB), UACC-62
[10] = test system: SK-MEL-28 (Melanoma); experiment: NCI DTP tumor cell line screen (SRB), SK-MEL-28

4-[5-(2-Phenanthrenyl)-3-(trifluoromethyl)-1H-pyrazol-1-yl]-phenyl -guanidine [Compound 71]
Mean Optical Densities ([1]; OVCAR-5, Log10 Concentration −4.0): 0.474 | Mean Optical Densities ([1]; OVCAR-5, Log10 Concentration −5.0): −0.033 | Mean Optical Densities ([1]; OVCAR-5, Log10 Concentration −6.0): 1.559 | Mean Optical Densities ([1]; OVCAR-5, Log10 Concentration −7.0): 1.437 | Mean Optical Densities ([1]; OVCAR-5, Log10 Concentration −8.0): 1.538 | Mean Optical Densities ([2]; NCI-H522, Log10 Concentration −4.0): 0.439 | Mean Optical Densities ([2]; NCI-H522, Log10 Concentration −5.0): 0.037 | Mean Optical Densities ([2]; NCI-H522, Log10 Concentration −6.0): 1.471 | Mean Optical Densities ([2]; NCI-H522, Log10 Concentration −7.0): 1.558 | Mean Optical Densities ([2]; NCI-H522, Log10 Concentration −8.0): 1.509 | Mean Optical Densities ([3]; MOLT-4, Log10 Concentration −4.0): 0.143 | Mean Optical Densities ([3]; MOLT-4, Log10 Concentration −5.0): 0.143 | Mean Optical Densities ([3]; MOLT-4, Log10 Concentration −6.0): 0.461 | Mean Optical Densities ([3]; MOLT-4, Log10 Concentration −7.0): 0.736 | Mean Optical Densities ([3]; MOLT-4, Log10 Concentration −8.0): 0.833 | Mean Optical Densities ([4]; Log10 Concentration −4.0): 0.229 | Mean Optical Densities ([4]; Log10 Concentration −5.0): 0.073 | Mean Optical Densities ([4]; Log10 Concentration −6.0): 1.507 | Mean Optical Densities ([4]; Log10 Concentration −7.0): 1.340 | Mean Optical Densities ([4]; Log10 Concentration −8.0): 1.467 | Mean Optical Densities ([5]; A498, Log10 Concentration −4.0): 0.540 | Mean Optical Densities ([5]; A498, Log10 Concentration −5.0): 1.903 | Mean Optical Densities ([5]; A498, Log10 Concentration −6.0): 1.869 | Mean Optical Densities ([5]; A498, Log10 Concentration −7.0): 2.087 | Mean Optical Densities ([5]; A498, Log10 Concentration −8.0): 2.413 | Mean Optical Densities ([6]; TK-10, Log10 Concentration −4.0): 0.245 | Mean Optical Densities ([6]; TK-10, Log10 Concentration −5.0): −0.021 | Mean Optical Densities ([6]; TK-10, Log10 Concentration −6.0): 0.998 | Mean Optical Densities ([6]; TK-10, Log10 Concentration −7.0): 1.087 | Mean Optical Densities ([7]; UO-31, Log10 Concentration −4.0): 0.288 | Mean Optical Densities ([7]; UO-31, Log10 Concentration −5.0): −0.030 | Mean Optical Densities ([7]; UO-31, Log10 Concentration −6.0): 1.332 | Mean Optical Densities ([7]; UO-31, Log10 Concentration −7.0): 1.407 | Mean Optical Densities ([7]; UO-31, Log10 Concentration −8.0): 1.375 | Mean Optical Densities ([8]; Log10 Concentration −4.0): 0.165 | Mean Optical Densities ([8]; Log10 Concentration −5.0): 0.008 | Mean Optical Densities ([8]; Log10 Concentration −6.0): 0.935 | Mean Optical Densities ([8]; Log10 Concentration −8.0): 0.948 | Mean Optical Densities ([9]; UACC-62, Log10 Concentration −4.0): 0.272 | Mean Optical Densities ([9]; UACC-62, Log10 Concentration −5.0): −0.041 | Mean Optical Densities ([9]; UACC-62, Log10 Concentration −6.0): 1.301 | Mean Optical Densities ([9]; UACC-62, Log10 Concentration −7.0): 1.338 | Mean Optical Densities ([9]; UACC-62, Log10 Concentration −8.0): 1.323 | Mean Optical Densities ([10]; SK-MEL-28, Log10 Concentration −4.0): 0.248 | Mean Optical Densities ([10]; SK-MEL-28, Log10 Concentration −5.0): −0.002 | Mean Optical Densities ([10]; SK-MEL-28, Log10 Concentration −6.0): 1.367 | Mean Optical Densities ([10]; SK-MEL-28, Log10 Concentration −7.0): 1.408 | Mean Optical Densities ([10]; SK-MEL-28, Log10 Concentration −8.0): 1.439
